The source gives many values for each of these; only a part stands here.
Assays:
Format in all cases: cell-based
[1] = molecular target: Histone-lysine N-methyltransferase EZH2 (Mus musculus) (UniProt Q61188); assay: Inhibition of EZH2 in mouse B16-F1 migrating cells assessed as fold change in H3K27me3-dependent regulated Sgk1-mRNA expression at 3 uM measured by ChIP-seq analysis relative to control cells
[2] = molecular target: Histone-lysine N-methyltransferase EZH2 (Mus musculus) (UniProt Q61188); assay: Inhibition of EZH2 in mouse B16-F1 migrating cells assessed as fold change in H3K27me3-dependent regulated Tnfaip8l1-mRNA expression at 3 uM measured by ChIP-seq analysis relative to control cells
[3] = molecular target: Histone-lysine N-methyltransferase EZH2 (Mus musculus) (UniProt Q61188); assay: Inhibition of EZH2 in mouse B16-F1 migrating cells assessed as fold change in H3K27me3-independent regulated Cited1-mRNA expression at 3 uM measured by ChIP-seq analysis relative to control cells
[4] = molecular target: Histone-lysine N-methyltransferase EZH2 (Mus musculus) (UniProt Q61188); assay: Inhibition of EZH2 in mouse B16-F1 migrating cells assessed as fold change in H3K27me3-buffered regulated Piwil2-mRNA expression at 3 uM measured by ChIP-seq analysis relative to control cells
[5] = molecular target: Histone-lysine N-methyltransferase EZH2 (Mus musculus) (UniProt Q61188); assay: Inhibition of EZH2 in mouse B16-F1 migrating cells assessed as fold change in H3K27me3-buffered regulated Ppargc1a-mRNA expression at 3 uM measured by ChIP-seq analysis relative to control cells
[6] = molecular target: Histone-lysine N-methyltransferase EZH2 (Mus musculus) (UniProt Q61188); assay: Inhibition of EZH2 in mouse B16-F1 migrating cells assessed as fold change in H3K27me3-buffered regulated Hyal1-mRNA expression at 3 uM measured by ChIP-seq analysis relative to control cells
[7] = molecular target: Histone-lysine N-methyltransferase EZH2 (Mus musculus) (UniProt Q61188); assay: Inhibition of EZH2 in mouse B16-F1 migrating cells assessed as fold change in H3K27me3-buffered regulated Anxa2-mRNA expression at 3 uM measured by ChIP-seq analysis relative to control cells
[8] = molecular target: Histone-lysine N-methyltransferase EZH2 (Mus musculus) (UniProt Q61188); assay: Inhibition of EZH2 in mouse B16-F1 migrating cells assessed as fold change in H3K27me3-buffered regulated Ccdc14-mRNA expression at 3 uM measured by ChIP-seq analysis relative to control cells
[9] = molecular target: Histone-lysine N-methyltransferase EZH2 (Mus musculus) (UniProt Q61188); assay: Inhibition of EZH2 in mouse B16-F1 migrating cells assessed as fold change in H3K27me3-buffered regulated Tbkbp1-mRNA expression at 3 uM measured by ChIP-seq analysis relative to control cells
[10] = molecular target: Histone-lysine N-methyltransferase EZH2 (Mus musculus) (UniProt Q61188); assay: Inhibition of EZH2 in mouse B16-F1 migrating cells assessed as fold change in H3K27me3-buffered regulated Zfp125-mRNA expression at 3 uM measured by ChIP-seq analysis relative to control cells
[11] = molecular target: Histone-lysine N-methyltransferase EZH2 (Mus musculus) (UniProt Q61188); assay: Inhibition of EZH2 in mouse B16-F1 migrating cells assessed as fold change in H3K27me3-buffered regulated Stard8-mRNA expression at 3 uM measured by ChIP-seq analysis relative to control cells
[12] = molecular target: Histone-lysine N-methyltransferase EZH2 (Mus musculus) (UniProt Q61188); assay: Inhibition of EZH2 in mouse B16-F1 migrating cells assessed as fold change in H3K27me3-buffered regulated Iqcc-mRNA expression at 3 uM measured by ChIP-seq analysis relative to control cells
[13] = molecular target: Histone-lysine N-methyltransferase EZH2 (Mus musculus) (UniProt Q61188); assay: Inhibition of EZH2 in mouse B16-F1 migrating cells assessed as fold change in H3K27me3-buffered regulated Ifit2-mRNA expression at 3 uM measured by ChIP-seq analysis relative to control cells
[14] = molecular target: Histone-lysine N-methyltransferase EZH2 (Mus musculus) (UniProt Q61188); assay: Inhibition of EZH2 in mouse B16-F1 migrating cells assessed as fold change in H3K27me3-buffered regulated Mef2c-mRNA expression at 3 uM measured by ChIP-seq analysis relative to control cells
[15] = molecular target: T1, RNA polymerase II (Mus musculus) (UniProt P08775+Q8CFI7+P97760+A0A3Q4L2S8+Q80UW8+P61219+P62488+Q923G2+P60898+O08740+Q63871+P62876); assay: Inhibition of RNA polymerase II in mouse B16-F1 migrating cells assessed as fold change in Car9-RNA stability at 0.1 mM measured by ChIP-seq analysis relative to control cells
[16] = molecular target: T1, RNA polymerase II (Mus musculus); assay: Inhibition of RNA polymerase II in mouse B16-F1 migrating cells assessed as fold change in Chchd10-RNA stability at 0.1 mM measured by ChIP-seq analysis relative to control cells
[17] = molecular target: T1, RNA polymerase II (Mus musculus); assay: Inhibition of RNA polymerase II in mouse B16-F1 migrating cells assessed as fold change in Nudt8-RNA stability at 0.1 mM measured by ChIP-seq analysis relative to control cells
[18] = molecular target: T1, RNA polymerase II (Mus musculus); assay: Inhibition of RNA polymerase II in mouse B16-F1 migrating cells assessed as fold change in Coq4-RNA stability at 0.1 mM measured by ChIP-seq analysis relative to control cells
[19] = molecular target: T1, RNA polymerase II (Mus musculus); assay: Inhibition of RNA polymerase II in mouse B16-F1 migrating cells assessed as fold change in Mrpl58-RNA stability at 0.1 mM measured by ChIP-seq analysis relative to control cells
[20] = molecular target: T1, RNA polymerase II (Mus musculus); assay: Inhibition of RNA polymerase II in mouse B16-F1 migrating cells assessed as fold change in Polr2j-RNA stability at 0.1 mM measured by ChIP-seq analysis relative to control cells
[21] = molecular target: T1, RNA polymerase II (Mus musculus); assay: Inhibition of RNA polymerase II in mouse B16-F1 migrating cells assessed as fold change in Rps5-RNA stability at 0.1 mM measured by ChIP-seq analysis relative to control cells
[22] = molecular target: T1, RNA polymerase II (Mus musculus); assay: Inhibition of RNA polymerase II in mouse B16-F1 migrating cells assessed as fold change in Rad51ap1-RNA stability at 0.1 mM measured by ChIP-seq analysis relative to control cells
[23] = molecular target: T1, RNA polymerase II (Mus musculus); assay: Inhibition of RNA polymerase II in mouse B16-F1 migrating cells assessed as fold change in Xrn2-RNA stability at 0.1 mM measured by ChIP-seq analysis relative to control cells
[24] = molecular target: T1, RNA polymerase II (Mus musculus); assay: Inhibition of RNA polymerase II in mouse B16-F1 migrating cells assessed as fold change in Sox5-RNA stability at 0.1 mM measured by ChIP-seq analysis relative to control cells
[25] = molecular target: T1, RNA polymerase II (Mus musculus); assay: Inhibition of RNA polymerase II in mouse B16-F1 migrating cells assessed as fold change in Rlim-RNA stability at 0.1 mM measured by ChIP-seq analysis relative to control cells
[26] = molecular target: T1, RNA polymerase II (Mus musculus); assay: Inhibition of RNA polymerase II in mouse B16-F1 migrating cells assessed as fold change in Pgap1-RNA stability at 0.1 mM measured by ChIP-seq analysis relative to control cells
[27] = molecular target: T1, RNA polymerase II (Mus musculus); assay: Inhibition of RNA polymerase II in mouse B16-F1 migrating cells assessed as fold change in Eif3a-RNA stability at 0.1 mM measured by ChIP-seq analysis relative to control cells
[28] = molecular target: T1, RNA polymerase II (Mus musculus); assay: Inhibition of RNA polymerase II in mouse B16-F1 migrating cells assessed as fold change in Bard1-RNA stability at 0.1 mM measured by ChIP-seq analysis relative to control cells
[29] = molecular target: T1, RNA polymerase II (Mus musculus); assay: Inhibition of RNA polymerase II in mouse B16-F1 migrating cells assessed as fold change in Rabgap1-RNA stability at 0.1 mM measured by ChIP-seq analysis relative to control cells
[30] = molecular target: T1, RNA polymerase II (Mus musculus); assay: Inhibition of RNA polymerase II in mouse B16-F1 migrating cells assessed as fold change in Hells-RNA stability at 0.1 mM measured by ChIP-seq analysis relative to control cells

Protein sequences, listed by entry. Tags and fused reporters are not part of them.
UniProt Q61188, whole entry: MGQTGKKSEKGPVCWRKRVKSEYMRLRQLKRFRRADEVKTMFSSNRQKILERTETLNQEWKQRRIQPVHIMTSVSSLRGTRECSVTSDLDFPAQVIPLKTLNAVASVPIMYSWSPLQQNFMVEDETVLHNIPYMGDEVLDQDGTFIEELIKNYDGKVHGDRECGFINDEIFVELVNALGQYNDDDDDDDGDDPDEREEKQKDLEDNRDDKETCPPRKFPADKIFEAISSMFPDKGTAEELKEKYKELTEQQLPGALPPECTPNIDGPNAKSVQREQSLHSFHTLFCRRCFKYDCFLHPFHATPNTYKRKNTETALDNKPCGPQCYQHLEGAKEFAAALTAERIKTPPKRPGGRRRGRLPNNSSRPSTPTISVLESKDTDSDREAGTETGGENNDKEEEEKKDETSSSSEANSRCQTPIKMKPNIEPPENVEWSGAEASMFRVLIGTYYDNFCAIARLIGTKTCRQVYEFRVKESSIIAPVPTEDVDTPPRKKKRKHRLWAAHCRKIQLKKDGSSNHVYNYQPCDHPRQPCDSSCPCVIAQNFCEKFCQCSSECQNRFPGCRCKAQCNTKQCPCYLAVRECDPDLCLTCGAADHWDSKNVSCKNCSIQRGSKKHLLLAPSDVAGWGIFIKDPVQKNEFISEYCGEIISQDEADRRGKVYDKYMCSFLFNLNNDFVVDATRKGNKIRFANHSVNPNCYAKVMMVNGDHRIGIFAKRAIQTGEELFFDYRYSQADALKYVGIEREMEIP

## CCCc1cc(C)[nH]c(=O)c1CNC(=O)c1cc(-c2ccnc(N3CCN(C)CC3)c2)cc2c1cnn2C(C)C
[1]
  log2FC: 0.33
[2]
  log2FC: -0.41
[3]
  log2FC: 0.55
[4]
  log2FC: 1.55
[5]
  log2FC: 0.66
[6]
  log2FC: 0.51
[7]
  log2FC: 0.39
[8]
  log2FC: -0.43
[9]
  log2FC: -0.43
[10]
  log2FC: -0.48
[11]
  log2FC: -0.63
[12]
  log2FC: -0.65
[13]
  log2FC: -0.66
[14]
  log2FC: -0.96

## OC[C@H]1O[C@@H](n2cnc3cc(Cl)c(Cl)cc32)[C@H](O)[C@@H]1O
[15]
  log2FC: 1.15
[16]
  log2FC: 0.62
[17]
  log2FC: 0.58
[18]
  log2FC: 0.48
[19]
  log2FC: 0.46
[20]
  log2FC: 0.45
[21]
  log2FC: 0.45
[22]
  log2FC: -0.45
[23]
  log2FC: -0.46
[24]
  log2FC: -0.46
[25]
  log2FC: -0.5
[26]
  log2FC: -0.51
[27]
  log2FC: -0.59
[28]
  log2FC: -0.61
[29]
  log2FC: -0.62
[30]
  log2FC: -1.03

— ChEMBL document CHEMBL5674883, “The Heterochromatin Landscape in Migrating Cells and the Importance of H3K27me3 for Associated Transcriptome Alterations” (Cells, 2018)
